# Assay results published in PubChem BioAssay AID504648 (National Center for Advancing Translational Sciences (NCATS), 2011).
# The whole screen tested about 390,000 compounds, of which about 610 (0.16%) were called active. This list was built around the results that the source calls inconclusive (neither active nor inactive); the mix of calls is not that of the screen. Calls follow the shape of the dose curve; as a rule, active = well fitted inhibition curve with a large enough effect; inconclusive = small, poorly fitted or top-dose-only effect, or effect the other way, or another doubt; inactive = no such curve, though single readings can be large or run the other way. A potency beside an inconclusive call is a rough fit, not a confirmed value.
# Experiment: Nrf2 qHTS screen for inhibitors: counterscreen for cytotoxicity
# Details: A549 ARE-Fluc cells, CellTiter-Fluor viability, 18-24 h; series mostly up to 46 µM
# In short: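 A549 ARE_Fluc cells in 5% FBS OPTI-MEM were exposed to compounds in concentration-response for 18-24 h at 37 deg C. Viability was read by CellTiter-Fluor fluorescence (Ex 405/Em 525) after 30 min, before the luciferase read.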
# Potency is read from the fitted curve at half-maximal effect.
row,SMILES,Potency
1,COC(=O)c1cc(C)nc2c1C(=O)C(=O)C=C2N1CCOCC1,"inconclusive: 18.4 µM [falling, single point]"
2,COc1cccc(NC(=O)CSc2nc3c([nH]c4ccccc43)c(=O)n2-c2ccccc2)c1,"inconclusive: 29.1 µM [falling, partial curve, poor fit]"
3,CN(CC(=O)Nc1ccccc1Br)CC(=O)NC(c1ccccc1)c1ccccc1,"inconclusive: 25.9 µM [falling, partial curve, poor fit]"
4,COc1ccc(S(=O)(=O)n2cnc3cc(C)c(C)cc32)cc1C,inactive
5,O=S(=O)(Nc1cccc(-c2ccc(N3CCCCCC3)nn2)c1)c1ccccc1F,inactive
6,Cc1cc(C)nc(NS(=O)(=O)c2ccc(NC(=S)NC(=O)C(C)C)cc2)n1,"inconclusive: 4.61 µM [falling, partial curve, poor fit]"
7,Cc1ccc(OCC(=O)N/N=C/c2cn[nH]c2-c2ccc(Cl)c(Cl)c2)cc1,"inconclusive: 29.1 µM [falling, single point]"
8,O=C(c1ccc2c(=O)n(CCc3ccccc3)c(=O)[nH]c2c1)N1CCN(c2ccccc2)CC1,inactive
9,CCc1nc2sc3c(N4CCC(C)CC4)ncnc3c2c2c1CCCC2,"inconclusive: 29.1 µM [activator, partial curve, poor fit]"
10,Cc1ccc(CN(C(=O)COc2ccc(Cl)c(C)c2)c2ccccn2)o1,inactive
11,S=C(NCc1ccccn1)Nc1ccccc1Cl,inactive
12,Cc1ccc(C(=O)/C=C/c2cn(CC(O)CN3CCc4ccccc43)c3ccccc23)cc1 (configuration not stated),"inconclusive: 23.1 µM [falling, partial curve, poor fit]"
13,Cc1ccc(S(=O)(=O)N2CCCCC2CCNC(=O)C(=O)NCC2CCCO2)cc1 (configuration not stated),inactive
14,O=C(O)c1cc(O)c2c(c1)C(=O)c1cc(O)cc(O)c1C2=O,"inconclusive: 23.1 µM [falling, single point]"
15,CCCNC(=O)c1nnsc1S(=O)(=O)c1ccc(Cl)cc1,"inconclusive: 18.4 µM [falling, single point]"
16,CC(=O)Nc1ccc(OCC(O)CN2CCN(c3cc(Cl)ccc3C)CC2)cc1 (configuration not stated),"inconclusive: 29.1 µM [falling, partial curve, poor fit]"
17,CCOC(=O)c1[nH]c(C)c(C(=O)Nc2cccc(Cl)c2C)c1C,"inconclusive: 2.59 µM [falling, partial curve, poor fit]"
18,O=C(Nc1nc2ccccc2c(=O)[nH]1)c1ccccc1SCc1ccccc1,inactive
19,CSC1=NC(C(Cl)(Cl)Cl)N=C(c2ccc(C)cc2)N1 (configuration not stated),"inconclusive: 0.651 µM [falling, full curve]"
20,Cc1ccc(Cl)cc1NC(=S)NCCCSC1CCCCC1,"inconclusive: 29.1 µM [falling, single point]"
21,O=C(NC1CCCC1)C1CCCN(C(=O)Nc2ccccc2)C1 (configuration not stated),"inconclusive: 29.1 µM [falling, single point]"
22,O=S(=O)(Nc1cccc2cccnc12)c1ccc(Br)cc1,"inconclusive: 16.4 µM [falling, single point]"
23,CCOc1ccccc1N=NC1C(=O)N(C(N)=S)N=C1C (configuration not stated),inactive

# As entered above.
# In Potency, COC(=O)c1cc(C)nc2c1C(=O)C(=O)C=C2N1CCOCC1 shows inconclusive: 18.4 µM [falling, single point]
# In Potency, Cc1ccc(S(=O)(=O)N2CCCCC2CCNC(=O)C(=O)NCC2CCCO2)cc1 (configuration not stated) shows inactive

# The listing continues.

row,SMILES,Potency
1,CCSC(=S)c1c(C)[nH]n(-c2ccccc2)c1=O,"inconclusive: 29.1 µM [falling, single point]"
2,COc1ccc(/C=C2\CCc3c2nc2ccccc2c3C(=O)O)cc1OC,"inconclusive: 18.4 µM [activator, single point]"
3,COc1ccc(C(=O)NC2CCN(C(=O)Nc3ccc(F)cc3)CC2)cc1,"inconclusive: 5.17 µM [falling, partial curve, poor fit]"
4,NNc1nc2ccc(F)cc2s1,inactive
5,COc1ccccc1NC(=O)CSCC(=O)N1c2ccccc2CCc2ccccc21,"inconclusive: 18.4 µM [falling, single point]"
6,COC(=O)c1sc2ccccc2c1-n1cccc1C(=O)C(=O)Nc1ccc(Cl)cc1,"inconclusive: 23.1 µM [falling, partial curve, poor fit]"
7,O=c1cc(N2CCCCC2)c(-c2ccccc2)nn1Cc1ccc(Cl)cc1,"inconclusive: 23.1 µM [falling, single point]"
8,O=C(Cn1cc(/C=C\[N+](=O)[O-])c2ccccc21)Nc1ccccc1,"inconclusive: 29.1 µM [falling, partial curve, poor fit]"
9,c1ccc2c(c1)OCC(CNc1ncnc3sccc13)O2 (configuration not stated),inactive
10,Cc1ccc(C)c(N2CCN(C3(c4ccccc4)C(=O)c4ccccc4C3=O)CC2)c1,inactive
11,CN(C(=O)n1cnc2ccccc21)c1ccccc1,inactive
12,COC(=O)c1cc(C(=O)c2cc(F)ccc2O)cn2c(=O)c3c(C)c(C)sc3nc12,"inconclusive: 32.6 µM [falling, partial curve, poor fit]"
13,CCOC(=O)c1[nH]c(C)c(C(=O)Nc2cc(Cl)ccc2C)c1C,inactive
14,Cc1ccc(NC(=O)c2ccccc2NS(=O)(=O)c2ccc(F)cc2)cc1S(=O)(=O)N1CCCCC1,"inconclusive: 20.6 µM [falling, partial curve, poor fit]"
15,CCN(CC1CCCN(CCc2cccc(F)c2)C1)C(=O)c1cc2ccccc2o1 (configuration not stated),"inconclusive: 29.1 µM [falling, single point]"
16,COC(=O)c1cc2sccc2n1Cc1c(C)cc(C)cc1C,inactive
17,O=[N+]([O-])c1ccc(/C=C/C2=NN(c3ccccc3)C(c3ccco3)C2)o1 (configuration not stated),"inconclusive: 7.31 µM [falling, partial curve]"
18,O=C(c1cccc(Cl)c1)N(Cc1cccc(F)c1)C1CCS(=O)(=O)C1 (configuration not stated),inactive
19,CC(=O)c1c(O)cc(C(C)C)n(-c2ccccc2)c1=O,"inconclusive: 7.31 µM [falling, partial curve, poor fit]"
20,CC12CCC(C/C1=N\N=C1\NC(=O)/C(=C\c3cccc(Br)c3)S1)C2(C)C (configuration not stated),"inconclusive: 29.1 µM [falling, partial curve, poor fit]"
21,Cc1ccccc1OCCC(=O)Nc1ccc(Cl)cc1F,"inconclusive: 18.4 µM [activator, partial curve, poor fit]"
22,COc1cccc(N/C(SCc2cccc([N+](=O)[O-])c2)=C(/C#N)C(N)=O)c1,inactive
23,CCCSc1nnc(NC(=O)c2cc(=O)c3ccccc3o2)s1,inactive

# Arranged by SMILES length (descending): three of the compounds above
row,SMILES,Potency
12,COC(=O)c1cc(C(=O)c2cc(F)ccc2O)cn2c(=O)c3c(C)c(C)sc3nc12,"inconclusive: 32.6 µM [falling, partial curve, poor fit]"
17,O=[N+]([O-])c1ccc(/C=C/C2=NN(c3ccccc3)C(c3ccco3)C2)o1 (configuration not stated),"inconclusive: 7.31 µM [falling, partial curve]"
15,CCN(CC1CCCN(CCc2cccc(F)c2)C1)C(=O)c1cc2ccccc2o1 (configuration not stated),"inconclusive: 29.1 µM [falling, single point]"

# Next compounds

row,SMILES,Potency
1,CC(=O)Oc1ccc(C(=O)Nc2ccc(C3(C#N)CCCC3)cc2)cc1,"inconclusive: 10.3 µM [falling, partial curve, poor fit]"
2,N#CN1CCC(NS(=O)(=O)c2ccc(C(F)(F)F)cc2)CC1,"inconclusive: 0.259 µM [activator, full curve, poor fit]"
3,COc1ccc(C2CC(=O)c3cnc(NC(=O)c4ccccc4)nc3C2)c(OC)c1 (configuration not stated),"inconclusive: 23.1 µM [falling, partial curve, poor fit]"
4,CCOc1cccc(C(=O)N(Cc2ccc(C(C)C)cc2)C2CCS(=O)(=O)C2)c1 (configuration not stated),"inconclusive: 18.4 µM [falling, partial curve, poor fit]"
5,S=C(Nc1ccc2c(c1)OCCO2)Nc1ccc2c(c1)OCO2,inactive
6,CCCCCn1c(CCCNC(=O)c2ccccc2)nc2ccccc21,inactive
7,CCN(CC(=O)Nc1ccc(NC(C)=O)cc1)C(=O)CSc1ncnc2sc(C)c(C)c12,inactive
8,Cc1nnc(N2CCC(C(=O)NC3CCC(C)CC3)CC2)c2nn(-c3ccc(Cl)cc3)c(C)c12 (configuration not stated),"inconclusive: 6.51 µM [activator, partial curve, poor fit]"
9,Cc1nn(C)c2c1c(C(F)(F)F)cc(=O)n2CC(=O)Nc1ccc(F)cc1F,"inconclusive: 3.26 µM [activator, partial curve, poor fit]"
10,Cc1cc(OC(C)C(=O)N(Cc2ccco2)Cc2ccco2)cc(C)c1Cl (configuration not stated),inactive
11,Cc1cc(NC(=O)CCN2CCC(C(N)=O)CC2)ccc1Br,"inconclusive: 20.6 µM [activator, single point]"
12,C#CCOCCOCCOCCNc1nc(N2CCOCC2)nc(N2CCN(C(=O)[C@H](CCC(=O)O)n3cc(C(N)[C@H](C)CC)nn3)CC2)n1 (some centres not stated),inactive
13,CCOC(=O)C(=Cc1ccc(Br)cc1)C(=O)OCC,"inconclusive: 32.6 µM [falling, partial curve, poor fit]"
14,CC(C)(C)OC(=O)N/N=C\c1ccc([N+](=O)[O-])s1,inactive
15,Cc1c(Cc2ccccc2)c(=O)oc2c(O)c(O)ccc12,"inconclusive: 25.9 µM [activator, single point]"
16,O=C(Cn1ncc(Cl)c(Cl)c1=O)N1CCN(Cc2ccccc2)CC1,"inconclusive: 29.1 µM [falling, single point]"
17,CCC1CCCCN1S(=O)(=O)c1ccc(C(=O)Nc2nnc(-c3ccccc3Cl)o2)cc1 (configuration not stated),"inconclusive: 13 µM [falling, partial curve, poor fit]"
18,Cc1cccc(C)c1-n1c(C)cc(/C=N\Nc2ccc([N+](=O)[O-])cn2)c1C,"inconclusive: 32.6 µM [falling, partial curve, poor fit]"
19,O=C(c1ccc(N2CCCCC2)c([N+](=O)[O-])c1)N1CCN(c2ccccn2)CC1,"inconclusive: 6.51 µM [activator, partial curve, poor fit]"
20,CCCCOC(=O)C1=C(N)N2C(=O)C(C)SC2=C(C(=O)OCC)C1c1ccc(O)c(OC)c1 (configuration not stated),"inconclusive: 16.4 µM [falling, single point]"
21,Clc1cccc(Cl)c1C1Nc2cccc3cccc(c23)N1,"inconclusive: 20.6 µM [falling, partial curve, poor fit]"
